Data from PubChem BioAssay AID2061310 (National Center for Advancing Translational Sciences (NCATS), 2025).
Inconclusive results, whose numbers are uncertain, are shown with a selection of clear calls. Where the call is inconclusive, the potency comes from a doubtful curve fit. Calls of active or inactive are those of the source. Calls follow the shape of the dose curve; as a rule, active = well fitted curve in the direction sought with a large enough effect; inconclusive = small, poorly fitted or top-dose-only effect, or another doubt; inactive = no such curve, though single readings can be large or run the other way.

The compounds below were run against Retinal dehydrogenase 2 (Homo sapiens) (UniProt O94788) (assay: qHTS for Inhibitors of the Aldehyde Dehydrogenase Family (ALDH1A2) Validation screens). Conditions: fluorescence read-out; Potency: ALDH1A2 inhibition qHTS validation; series mostly up to 44.5 µM.
CCOC(=O)CSc1nc2c(sc3ccccc32)c(=O)n1CCCN1CCCC1 was tested, and the Potency was “inactive”.
CCOc1ccc(NC(=O)Nc2cccc(C(=O)O)c2)cc1 was tested, and the Potency was inconclusive: 25.1 µM [inhibitor, single point].
In the case of O=c1c(-c2ccc(O)cc2)coc2cc(O[C@@H]3O[C@H](CO)[C@H](O)[C@H](O)[C@H]3O)ccc12, the Potency is reported as inconclusive: 11.2 µM [inhibitor, full curve].
